Test results as given in publication doi:10.1101/2020.07.22.205203.
These are yes or no findings as the source states them, for the method shown. In cells and extracts the contact can be indirect. Here binding means that the protein was enriched with, or labelled near, the bait; the list need not be complete.

Amino acid sequences for entries named in this document (tags omitted).
UniProt Q5SQI0: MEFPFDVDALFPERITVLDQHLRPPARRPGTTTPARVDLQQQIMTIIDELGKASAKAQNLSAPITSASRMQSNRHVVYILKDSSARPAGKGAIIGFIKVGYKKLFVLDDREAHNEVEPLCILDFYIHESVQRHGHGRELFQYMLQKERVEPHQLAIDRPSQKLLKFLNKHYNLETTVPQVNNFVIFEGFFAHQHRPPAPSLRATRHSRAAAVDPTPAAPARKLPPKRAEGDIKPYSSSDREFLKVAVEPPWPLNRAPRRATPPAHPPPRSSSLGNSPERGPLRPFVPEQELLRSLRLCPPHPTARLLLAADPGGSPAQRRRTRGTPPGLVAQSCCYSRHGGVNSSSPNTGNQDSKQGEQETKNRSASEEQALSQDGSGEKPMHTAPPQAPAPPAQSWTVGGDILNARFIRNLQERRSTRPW
UniProt Q9Y490: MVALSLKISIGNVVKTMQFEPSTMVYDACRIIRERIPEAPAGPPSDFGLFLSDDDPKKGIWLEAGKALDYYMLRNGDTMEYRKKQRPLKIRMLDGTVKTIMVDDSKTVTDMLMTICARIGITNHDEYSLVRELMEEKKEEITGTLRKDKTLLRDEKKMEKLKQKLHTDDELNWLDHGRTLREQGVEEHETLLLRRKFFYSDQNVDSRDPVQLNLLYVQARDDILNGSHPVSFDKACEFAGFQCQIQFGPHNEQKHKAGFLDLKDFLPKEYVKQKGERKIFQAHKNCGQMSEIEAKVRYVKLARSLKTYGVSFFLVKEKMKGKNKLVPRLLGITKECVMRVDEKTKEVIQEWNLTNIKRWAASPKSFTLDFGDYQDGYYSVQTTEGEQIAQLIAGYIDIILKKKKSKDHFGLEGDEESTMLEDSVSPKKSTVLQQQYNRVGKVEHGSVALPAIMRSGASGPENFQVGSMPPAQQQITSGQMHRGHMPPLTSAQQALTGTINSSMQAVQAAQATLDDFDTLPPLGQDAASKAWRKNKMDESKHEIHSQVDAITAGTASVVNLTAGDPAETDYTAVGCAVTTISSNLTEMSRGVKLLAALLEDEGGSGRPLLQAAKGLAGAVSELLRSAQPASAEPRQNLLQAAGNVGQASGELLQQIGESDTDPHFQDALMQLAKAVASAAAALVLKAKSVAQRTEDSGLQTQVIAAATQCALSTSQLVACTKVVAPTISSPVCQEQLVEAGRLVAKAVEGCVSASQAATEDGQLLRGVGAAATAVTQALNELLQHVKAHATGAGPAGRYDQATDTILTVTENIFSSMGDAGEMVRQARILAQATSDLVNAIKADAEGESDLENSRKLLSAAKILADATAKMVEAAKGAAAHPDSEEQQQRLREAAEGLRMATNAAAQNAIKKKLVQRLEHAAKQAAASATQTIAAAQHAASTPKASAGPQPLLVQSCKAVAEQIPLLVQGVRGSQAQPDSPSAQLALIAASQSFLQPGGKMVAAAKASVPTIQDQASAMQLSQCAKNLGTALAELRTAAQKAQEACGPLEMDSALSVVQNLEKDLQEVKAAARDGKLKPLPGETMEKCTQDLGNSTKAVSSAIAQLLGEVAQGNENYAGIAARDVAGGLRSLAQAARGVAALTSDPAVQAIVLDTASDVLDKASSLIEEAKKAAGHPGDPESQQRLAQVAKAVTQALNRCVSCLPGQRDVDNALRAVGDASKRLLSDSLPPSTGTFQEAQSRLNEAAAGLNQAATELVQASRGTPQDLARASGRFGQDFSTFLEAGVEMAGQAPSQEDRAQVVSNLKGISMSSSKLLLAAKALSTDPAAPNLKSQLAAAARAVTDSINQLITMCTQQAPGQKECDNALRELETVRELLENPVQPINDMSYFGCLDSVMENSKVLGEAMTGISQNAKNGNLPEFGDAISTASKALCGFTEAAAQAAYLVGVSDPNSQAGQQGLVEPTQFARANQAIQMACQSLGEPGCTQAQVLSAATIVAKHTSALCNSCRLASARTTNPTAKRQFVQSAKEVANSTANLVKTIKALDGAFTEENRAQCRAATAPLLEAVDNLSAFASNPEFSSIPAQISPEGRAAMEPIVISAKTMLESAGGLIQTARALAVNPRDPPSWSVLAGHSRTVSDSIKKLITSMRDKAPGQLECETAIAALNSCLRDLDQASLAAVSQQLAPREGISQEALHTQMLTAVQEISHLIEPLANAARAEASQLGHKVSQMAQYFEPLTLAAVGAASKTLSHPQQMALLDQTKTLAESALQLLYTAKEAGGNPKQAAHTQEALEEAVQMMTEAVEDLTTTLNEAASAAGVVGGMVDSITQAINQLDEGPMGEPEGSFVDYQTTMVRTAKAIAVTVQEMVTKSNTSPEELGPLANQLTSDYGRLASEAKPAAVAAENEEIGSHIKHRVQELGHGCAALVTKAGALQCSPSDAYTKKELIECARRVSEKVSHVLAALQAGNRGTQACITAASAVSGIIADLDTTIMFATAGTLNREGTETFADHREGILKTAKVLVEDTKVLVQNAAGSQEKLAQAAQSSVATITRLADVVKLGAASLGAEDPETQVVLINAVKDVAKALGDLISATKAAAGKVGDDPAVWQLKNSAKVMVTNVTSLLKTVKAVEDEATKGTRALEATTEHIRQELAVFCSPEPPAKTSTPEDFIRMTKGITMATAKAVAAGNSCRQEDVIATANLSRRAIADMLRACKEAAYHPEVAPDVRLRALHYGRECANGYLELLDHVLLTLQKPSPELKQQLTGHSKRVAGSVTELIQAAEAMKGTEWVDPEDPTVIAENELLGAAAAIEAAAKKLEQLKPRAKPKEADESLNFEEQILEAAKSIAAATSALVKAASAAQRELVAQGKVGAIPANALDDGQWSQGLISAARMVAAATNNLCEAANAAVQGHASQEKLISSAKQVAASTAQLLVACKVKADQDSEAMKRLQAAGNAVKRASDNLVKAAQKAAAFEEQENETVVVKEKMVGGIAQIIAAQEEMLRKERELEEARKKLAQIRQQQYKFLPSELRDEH

Target: GFP-αTAT1 (alpha-tubulin acetyltransferase 1), expressed in HEK293 cells (UniProt Q5SQI0)
Assay: affinity purification with mass spectrometry

In the case of “Talin-1 (endogenous in HEK cells) (from UniProt Q9Y490 1-2541)”, the binding is reported as “binds”.
